The test has as its target Zkscan3 fused with a His-tag and GFP (Zkscan3-his-GFP) (UniProt Q91VW9). The test can be described thus: co-IP; Called co-immunoprecipitation by the paper; lysate (legend: nuclear extract) of MEL cells expressing Zkscan3-his-GFP, 1 mg/mL, incubated with Ni-NTA agarose overnight at 4 °C, beads washed six times with lysing buffer, western blot; empty Ni-NTA beads as negative control. In general terms: Immunoblotting shows a protein as a band on a membrane.

Amino acid sequences for entries named in this document (tags omitted).
UniProt Q91VW9: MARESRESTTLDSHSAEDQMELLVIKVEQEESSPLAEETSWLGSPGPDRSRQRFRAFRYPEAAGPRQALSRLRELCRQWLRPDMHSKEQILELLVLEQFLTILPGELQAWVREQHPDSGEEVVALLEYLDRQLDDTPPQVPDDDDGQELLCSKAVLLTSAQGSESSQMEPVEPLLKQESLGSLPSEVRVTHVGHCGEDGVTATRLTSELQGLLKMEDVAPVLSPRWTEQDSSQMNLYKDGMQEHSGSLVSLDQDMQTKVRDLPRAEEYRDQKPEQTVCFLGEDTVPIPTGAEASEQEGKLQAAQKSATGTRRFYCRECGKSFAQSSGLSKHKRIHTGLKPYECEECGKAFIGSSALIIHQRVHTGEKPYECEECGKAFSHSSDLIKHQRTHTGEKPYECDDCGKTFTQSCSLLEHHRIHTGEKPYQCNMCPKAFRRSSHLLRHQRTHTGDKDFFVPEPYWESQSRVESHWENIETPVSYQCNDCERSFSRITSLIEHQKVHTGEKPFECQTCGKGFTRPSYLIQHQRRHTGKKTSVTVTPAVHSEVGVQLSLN
UniProt P17679: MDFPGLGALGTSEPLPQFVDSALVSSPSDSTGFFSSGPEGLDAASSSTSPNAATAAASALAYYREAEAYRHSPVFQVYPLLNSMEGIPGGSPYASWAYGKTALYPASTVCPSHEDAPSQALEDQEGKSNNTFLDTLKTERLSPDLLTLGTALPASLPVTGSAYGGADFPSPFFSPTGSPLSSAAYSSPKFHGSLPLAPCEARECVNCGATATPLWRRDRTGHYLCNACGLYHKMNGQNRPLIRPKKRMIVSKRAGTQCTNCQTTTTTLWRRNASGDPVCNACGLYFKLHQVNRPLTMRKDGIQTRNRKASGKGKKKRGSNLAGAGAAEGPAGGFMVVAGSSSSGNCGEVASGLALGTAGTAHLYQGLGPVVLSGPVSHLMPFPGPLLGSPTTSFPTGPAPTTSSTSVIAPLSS

These results are taken from paper PMC9117376.

Results are given in words; binding and its absence hold for the method and conditions named. In cells and extracts the contact can be indirect. Some entries that bind do so weakly or less than the wild type.

For “GATA binding factor 1 (GATA1) (from UniProt P17679 1-413)”, the binding entry is listed as “binds”.
